# Percent effect of library compounds

Source: ChEMBL document CHEMBL3988442, “University of Dundee, Small-Polar-MMV Screening Library” (2021).

Values are the deposited “Percent Effect”, in %. The record does not define 0% and 100%; most values in the screen are far below 50% and negative numbers occur (in some assays of this library far below -100). This is an unselected part of the compounds tested.

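Whole-parasite assay of Trypanosoma brucei over 72 hours; the read-out is not stated. Concentration: 30 µM. Higher reads as stronger inhibition (inferred: compounds with an IC50 in retests scored well above the rest). Values scatter widely below zero; nearly all retest evidence comes from the higher of the two concentrations used. About 64,000 compounds were tested under these conditions; 1.5% (about 940) showed 50% or more at least once.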

| # | structure | percent effect |
|---|---|---|
| 1 | `O=S(=O)(c1ccc(Cl)cc1)N1CCOC[C@H](Oc2cnccn2)C1` | 2.365 |
| 2 | `Cc1nc(C)n(CC2CN(Cc3cccc4c3OCCO4)CCO2)n1` (stereo not given) | 23.51 |
| 3 | `CCOC(=O)C1CC2(CCOCC2)N2CCC(=O)N12` (stereo not given) | -23.36 |
| 4 | `Cc1c(C(=O)NC(C)CC(=O)c2cccs2)cnn1C` (stereo not given) | -34.42 |
| 5 | `CCCn1cnnc1CNC(=O)C1COc2c(cccc2OC)C1` (stereo not given) | -27.86 |
| 6 | `COC(=O)C1CCCN1C(=O)c1ccc(Cl)cc1F` (stereo not given) | -9.662 |
| 7 | `[H][C@@]12CN(c3ncccn3)C[C@]1([H])N(CCCc1ccc(F)cc1)C(=O)O2` | -4.604 |
| 8 | `CCCN1CCC(N(C)C(=O)c2cc(C)nc3cc(F)ccc23)CC1` | -21.77 |
| 9 | `CN(C)C(=O)N1CCC2(CC1)C(c1cnn(C)c1)CC(=O)N2C` (stereo not given) | 20.14 |
| 10 | `O=C(NCCCO)c1nnsc1-c1ccc(Cl)cc1` | -7.881 |
| 11 | `CC(C)Oc1cc(N2CC[C@H](CO)[C@@H](O)C2)nc(N)n1` | -21.24 |
| 12 | `CNc1ncc(-c2csc(NC(=O)C[C@H]3COCCN3)n2)cn1.Cl` | 6.424 |
| 13 | `Cc1cc(C)c2nc(C)c(C(=O)N3CCC(N4CCCC4)CC3)cc2c1` | -0.9171 |
| 14 | `COc1ccc2c(c1)CN(Cc1ccco1)C(=O)CCN2` | -16.84 |
| 15 | `CC(NCc1ccsc1)c1ccc(OCc2nccn2C)cc1` (stereo not given) | -12.46 |
| 16 | `Cc1ccccc1C(NC(=O)NCC1(CO)CC1)C1CC1` (stereo not given) | 7.046 |
| 17 | `CC(C)n1cc(CN2CCCN(C(=O)CN3CCCC3=O)CC2)cn1` | -32.8 |
| 18 | `O=C(NCc1ccccc1-n1cccn1)N1CCN2CCCCC2C1` (stereo not given) | -12.07 |
| 19 | `O=C(O)C(F)(F)F.O=C(O)C(F)(F)F.[H][C@@]12C[C@@H](Oc3cccc(F)c3)CN1CCN(Cc1nccn1C)C2` | -15.36 |
| 20 | `CN1CCN(Cc2cccnc2)C(=O)C12CCN(CC1CCOC1)CC2.O=C(O)C(F)(F)F.O=C(O)C(F)(F)F.O=C(O)C(F)(F)F` (stereo not given) | -23.61 |
| 21 | `CN(Cc1ccsc1)C(=O)c1ccc(F)c(NS(C)(=O)=O)c1` | -51.63 |
| 22 | `[H][C@]12CC[C@]([H])(CN(C(=O)Cn3c(C)cc(C)nc3=O)C1)N(CC=C(C)C)C2` | -13.55 |
| 23 | `CC(C)(O)C1CCN(C(=O)Nc2nc(-c3ccccc3)ns2)CC1` | 22.02 |
| 24 | `COCCC(=O)N1CCC2(COCc3cnc(-c4ccccc4)nc32)C1` (stereo not given) | -13.11 |
| 25 | `O=C(O)C(F)(F)F.c1csc(CN2CCCn3cnc(COCC4CC4)c3C2)n1` | 1.463 |
| 26 | `CSC(C)(C)CNC(=O)NCc1cccc(-n2cncn2)c1` | -7.949 |
| 27 | `N#Cc1cccnc1N1CCC(Nc2ccccc2)C1` (stereo not given) | 2.622 |
| 28 | `Cc1nc(CC(=O)N(C)C2CCCN(CCc3ccccc3)C2)cs1` (stereo not given) | -53.35 |
| 29 | `CCOc1c(CNC2CSCCSC2)cccc1OC` | 1.582 |
| 30 | `CC(C)CN1CC(O)CN(C(=O)c2cccc(C(F)(F)F)c2)CC1=O` (stereo not given) | -39.8 |
| 31 | `COc1ccc(C(CO)NC(=O)Nc2cccc(C(C)=O)c2)cc1` (stereo not given) | -52.48 |
| 32 | `CS(=O)(=O)N1CCC(c2nnc3ccc(C(=O)NC4CCC4)cn23)C1` (stereo not given) | 10.81 |
| 33 | `Cc1ccc(CN2CCCC(c3nnc(CN4CCCC4)n3C)C2)s1` (stereo not given) | -13.53 |
| 34 | `CCS(=O)(=O)c1ccc(CNc2c(Cl)cccc2C#N)cc1` | 9.058 |
| 35 | `COc1ccc(CN2CC[C@@H](O)[C@@H]2Cc2ccccc2)cc1.O=C(O)C(F)(F)F` | -27.04 |
| 36 | `CC(C)(C)n1ncc2c1CCCC2NCc1ccc2ncccc2c1` (stereo not given) | -6.461 |
| 37 | `O=C1CCCN1Cc1nnc2n1CCN(Cc1ccco1)C2` | -23.21 |
| 38 | `O=C(NC1CCCC1)NC1CCc2[nH]c(=O)ccc2C1` (stereo not given) | -45.69 |
| 39 | `Cc1cnccc1CN(C)C(=O)C(C)(C)NC(=O)c1cccs1` | -11.46 |
| 40 | `CN(Cc1nc2ccccc2[nH]1)C(=O)C(C)(C)n1cc(Cl)cn1` | -28.09 |
| 41 | `[H][C@]12CC[C@]([H])(CN(C)C1)N(Cc1ccccc1OCCN1CCOCC1)C2` | -49.22 |
| 42 | `CCc1nsc(NC2CCOC3(CCCC3)C2)n1` (stereo not given) | 4.857 |
| 43 | `c1ccc2oc(CN3CCCC3Cn3cncn3)nc2c1` (stereo not given) | -14.09 |
| 44 | `NC(=O)NCC(=O)N1CCC(c2cc(-c3ccccc3Cl)n[nH]2)CC1` | -0.8602 |
| 45 | `CC(=O)N1CCc2c(nc(N(C)C)nc2N(C)CC2CCCO2)C1` (stereo not given) | -6.535 |
| 46 | `Cc1cc(C2CCCN2C(=O)NCc2cccc(F)c2)on1` (stereo not given) | -11.68 |
| 47 | `CCn1cnc(NC(=O)N2CCC(c3ccc(F)cc3)C2)n1` (stereo not given) | -0.671 |
| 48 | `[H][C@@]12CN(C(=O)NC(C)C)C[C@]1([H])C(=O)N(Cc1cccc(C)c1)C2` | -38.65 |
| 49 | `CC(C)c1ccc(OCCC(=O)N(C)CC(N)=O)cc1` | -24.62 |
| 50 | `CC(C)C(C(=O)N1CCCN(c2cccnn2)CC1)n1cncn1` (stereo not given) | -3.931 |
| 51 | `Cc1ccc(NC(=O)N2CC(C(=O)NC(C)C)C3(CCOCC3)C2)cc1` (stereo not given) | -6.462 |
| 52 | `CN1CCN(c2ncc(CNCCCc3cccc(F)c3)cn2)CC1` | -77.47 |
| 53 | `COC(=O)Cn1nc(-c2ccccc2F)ccc1=O` | -50.05 |
| 54 | `Cc1cccc(C(=O)N2CCn3cnc(COCC4CC4)c3C2)n1` | -17.16 |
| 55 | `COCC1CN(CCOc2ccc(Cl)cc2)Cc2c1cnn2C.O=C(O)C(F)(F)F.O=C(O)C(F)(F)F` (stereo not given) | -9.552 |
| 56 | `O=C1OCCN1c1cccc(CNS(=O)(=O)Cc2ccc(F)cc2)c1` | 4.732 |
| 57 | `CN1CC2(CCN(C(=O)c3ccc4nonc4c3)CC2)CC1=O` | -26.92 |
| 58 | `Cc1ccc(S(=O)(=O)c2ncccc2CN2CCN(C)CC2)cc1` | -12.71 |
| 59 | `[H][C@@]12CS(=O)(=O)C[C@]1([H])N(Cc1cccc(OC(C)C)c1)CCN2CCC` | -20.76 |
| 60 | `Cn1nccc1C(=O)N1Cc2cc(Cl)ccc2OC2(CCOCC2)C1` | -24.88 |
| 61 | `[H][C@]12CCN(C(=O)CC3CC3)C[C@@]1([H])OCCN(Cc1csc(C)n1)C2` | 61.23 |
| 62 | `CC(C)Cc1nc(CN2CC(=O)N(C)c3ccccc3C2=O)no1` | 7.108 |
| 63 | `Cc1ccc2nc(CN3CCC(O)(CN4CCCC4)CC3)cc(O)c2c1` | 14.17 |
| 64 | `COc1ccccc1OC1CCN(C(=O)c2cnc(C)cc2C)CC1` | -5.736 |
| 65 | `N#Cc1cccnc1NCCc1cc(F)cc2c1OCOC2` | -43.04 |
| 66 | `Cc1ccccc1CC(=O)N1CC[C@@](O)(CNS(C)(=O)=O)[C@H](O)C1` | -31.69 |
| 67 | `Cc1cc(N2CCCN(c3nc(C)nc(C)c3C)CC2)ccn1` | -7.36 |
| 68 | `CCC(CO)N(Cc1ccco1)C(=O)c1sccc1NC(C)=O` (stereo not given) | 6.714 |
| 69 | `C[C@H](O)CNc1cc(-c2ccncc2)ncn1` | -18.63 |
| 70 | `COCC1CN(C(=O)c2cccn2C)Cc2ncnn2C1` (stereo not given) | 23.95 |
| 71 | `COc1ccccc1CNc1cnn(CC(F)F)c1` | -26.55 |
| 72 | `Cn1cc(-c2cnc(-c3ccnn3C)nc2)cc1C(=O)N1CCCC1` | -27.71 |
| 73 | `CC(=O)NCCC(=O)NCc1cc(Br)ccc1OC(F)F` | 5.126 |
| 74 | `Cc1nc(COCc2nc3c(o2)CN(C(=O)c2ccoc2)C3)cs1` | -82.47 |
| 75 | `Cc1nnsc1CN(C)C(=O)CN1CC2(CCNCC2)OC1=O` | -49.27 |
| 76 | `[H][C@]12CC[C@]([H])(CN(Cc3cc(C(C)(C)C)[nH]n3)C1)N(Cc1ccccn1)C2` | 3.996 |
| 77 | `CN(CC(=O)NCC1CCCCC1)S(=O)(=O)c1cccnc1` | -4.371 |
| 78 | `Cc1cnn(CCNCC(=O)N2CCN(c3ncccn3)CC2)c1` | 11.94 |
| 79 | `Cc1c(Cl)c(C(=O)NN2CCOCC2)nn1C` | -2.537 |
| 80 | `CC(C)NC(=O)[C@@H]1C[C@@H](N)CN1C(=O)c1cc2c([nH]c1=O)CCCC2` | -45.3 |
| 81 | `COc1ncccc1CNC(=O)N(Cc1ccc(F)cc1F)C1CC1` | -0.6046 |
| 82 | `CN(Cc1ccc(F)cc1)Cc1cc2c(cc1Br)OCCO2` | -6.769 |

8 of the entries, repeated:

structure,percent effect
O=C(NCCCO)c1nnsc1-c1ccc(Cl)cc1,-7.881
COCC1CN(CCOc2ccc(Cl)cc2)Cc2c1cnn2C.O=C(O)C(F)(F)F.O=C(O)C(F)(F)F (stereo not given),-9.552
Cc1ccc(CN2CCCC(c3nnc(CN4CCCC4)n3C)C2)s1 (stereo not given),-13.53
[H][C@]12CC[C@]([H])(CN(C)C1)N(Cc1ccccc1OCCN1CCOCC1)C2,-49.22
CS(=O)(=O)N1CCC(c2nnc3ccc(C(=O)NC4CCC4)cn23)C1 (stereo not given),10.81
[H][C@@]12CN(C(=O)NC(C)C)C[C@]1([H])C(=O)N(Cc1cccc(C)c1)C2,-38.65
CCCn1cnnc1CNC(=O)C1COc2c(cccc2OC)C1 (stereo not given),-27.86
CN1CCN(c2ncc(CNCCCc3cccc(F)c3)cn2)CC1,-77.47